Experimental findings from PMC12157126, “Saturation kinetics and specificity of transporters for L-arginine and asymmetric dimethylarginine (ADMA) at the blood-brain and blood-CSF barriers” (PLOS One, 2025) are described below.

Some compounds share one wording; it may come from a single statement.

The subject of this data set is blood-brain and blood-CSF barriers. Description: [14C]-sucrose distribution (vascular space / barrier integrity marker) during in situ brain perfusion. To be noted: for effect on [14C]-sucrose distribution (barrier integrity): 20 mM L-homoarginine, 4 mM BCH, 500 μM α-methyl-D,L-tryptophan. The procedure: The in situ brain/choroid plexus perfusion method was performed as previously described and will only be briefly detailed here. […] At the end of the perfusion period a CSF sample was taken from the cisterna magna, the animal was decapitated, the brain removed and samples taken under a Leica S4E L2 stereomicroscope (Leica; Buckinghamshire, UK). […] The circumventricular organs (CVOs) including the choroid plexus, pituitary gland and pineal gland were also sampled. Brain samples were also taken for capillary depletion analysis.
It is specifically used in brain samples (including brain homogenate and brain supernatant) to measure the vascular space at all perfusion time points. At later time points, in particular, it may also represent the capillary endothelial cell volume and/ or diffusion across the brain capillary wall and into the brain interstitial fluid. In the pellet samples it will measure extracellular fluid and may also represent capillary endothelial cell volume. […] It may also represent any accumulation into the cells of the choroid plexus.

The mark [1] stands for this setting: [3H]-ADMA experiments, brain regions, capillary depletion compartments and CVOs, 2 mM harmaline.
Where [2] appears, read: [3H]-arginine experiments, brain regions, capillary depletion samples, CVO and CSF.

On to `NC1(C(=O)O)CC2CCC1C2` (stereo not drawn) [BCH, 2-amino-endo-bicyclo[2.2.1]heptane-2-carboxylic acid, reference compound], for which the “effect on [14C]-sucrose distribution (barrier integrity)” value (from here on “effect … (barrier integrity)”) reads like this: under setting [1], “not significantly affected”; under setting [2], “not significantly affected”.

`NC(N)=NCCCC[C@H](N)C(=O)O` [L-homoarginine, reference compound]: the “effect … (barrier integrity)” value is, setting by setting: under setting [1], “not significantly affected”; under setting [2], “not significantly affected”.

As for `N[C@@H](Cc1ccccc1)C(=O)O` [L-phenylalanine, reference compound], for the setting “200 μM L-phenylalanine, occipital cortex and hippocampus”, the “effect on vascular space ([14C]-sucrose)” value is on record as “significant reduction”.

For the molecule `COc1ccc2c3c([nH]c2c1)C(C)=NCC3` [Harmaline, harmaline, reference compound], under setting [1], the “effect … (barrier integrity)” value is given as “not significantly affected”.

With `CC(N)(Cc1c[nH]c2ccccc12)C(=O)O` (racemic) [α-methyl-D,L-tryptophan, reference compound], the “effect … (barrier integrity)” value reads like this: under setting [1], “not significantly affected”; under setting [2], “not significantly affected”.

`CN(C)C(N)=NCCC[C@H](N)C(=O)O.Cl.Cl` [unlabelled ADMA, N^G,N^G-dimethylarginine dihydrochloride]: the “effect on [14C]-sucrose distribution” value by setting is: (unlabelled ADMA 500 μM, occipital cortex, caudate nucleus, hippocampus, thalamus, pons and cerebellum) “statistically increase”; (unlabelled ADMA at most concentrations, pellet) “statistically reduced”. Besides, the “[14C]-sucrose distribution vs control” value (unlabelled ADMA up to 100 μM, brain regions, homogenate, supernatant, CSF and CVOs (exception 3 μM in hippocampus and thalamus)) is on record as “not statistically significantly different”.

Take `CC(C)C[C@H](N)C(=O)O` [L-leucine, reference compound]: the “effect on [14C]-sucrose space” value (5 mM L-leucine, frontal cortex, caudate nucleus, cerebellum and pellet) is “significantly higher”.
